In paper doi:10.1101/2025.02.19.638559, “The architecture, assembly, and evolution of a complex flagellar motor” (bioRxiv, 2025):
No constants are given. Whether binding was seen depends on the method and setting. For some assays here: Binding calls can cover weak binding; strength is not graded here.

Tests used:
[1] = target: FlgY_(90–172) (C. jejuni 81-176); experiment: MST; FlgY at 200 nM in PBS with 0.05% Tween-20; PflA16-788-Strep titrated from 0 to 60 μM; Monolith NT.115, 20% LED power, 40% MST power; both purified
[2] = target: FlgY_(15–172), FlgY without the predicted signal peptide (C. jejuni 81-176); experiment: as above

B1: PflA_(16–788) of the purified PflA_(16–788) and PflB_(113–820) complex (domain or fragment)
chain: AFELVLNTGRENNQAFAVLHASNDLEFTCQKFITEAKVHFECDIVGMVDNKLKDQSFSAFDLKFIQEAQKIKMIILPKIQARMFDTSQNIYIDKELSSSSSHKSKAFTFIFTPELAPIKDYDGLDFNINFPHESLPYVGALDLNSDPVVIPQSADINTYLRIKKEYDKANYNQVVIDAQNAINRYRGSIFTSEFILYKLRAQNKLYTQDPSMRDQQILEKMIDDAKNWTRTFTSDKNFSEVLHIMLRTYIALAQRADVEYTMSILDNEQPNNYFTQLSKLDYADYIYNLNEKEKAVNIYENTYFNTKNLDLAARAAMSLAKNLLSNEQVNKAIEYINTILKANPEYFGKDIPRSLELAKLFNQKGQFDISASIYEDAFAKMSKLDPSYEETLKDLALVLSHANRSSDAKKYLDLYMDDYLDGKYLDEIKKASDEVFFALGDNNASFLHQRYTDLMKQYANKDENIANKALDEDVALYYKEGNFSAILAYKDLIESKKIPNATQFLEKAAINDLKNAIKADNCINAANIFMRFSAYDIGQKIENKKQMLACLIRTSNVEQALDYIDKNYNEDSIFYGLQKASILFDNKQYPQVIKISKDIANSRILKSDDENFKAYYLQFLSLLRLNDYNQAIKILQILESFPMNFSMVEAYDALLSYANDHNMQTTILTYAPKAIDYQNFKGINLFSPNLEFIYLDALTKINKNEESLAVLTDLLKLKLSDEDRARALYIQALTYERMQNIQAEKESLKQCLEIKSASNWQNLCKSKNQILNQ
notes: PflA of C. jejuni 81-176, residues 16-788; only 16-163 (β-sandwich domain and flexible loop) are resolved in the cryo-EM structure; PflA16-788 was cloned both in pET22b (C-terminal 6×His) and in pET26b (C-terminal Strep-tag); also called PflA_(16–163) (the part resolved in the map)
**Q.** With B1 as the binder, how does the binding [1] read?
**A.** Its binding is “no binding (tested: 60 μM)”.

**Q.** And the binding [2]?
**A.** Its binding is “binds”.
